Results reported in patent US20200155731A1, “DEVICE AND METHOD FOR PROMOTING RAPID STRUT COVERAGE AND VASCULAR ENDOTHELIAL COVERAGE” (priority 2017, published 2020).
At least one compound was matched to its structure with a doubt left.

Assays:
Type in all cases: cell-based
[1] = system: human vascular EC; assay: EC proliferation in bottles containing human EC, gene silencers vehicle lentivirus and plasmid; conditions: Experiment 2; lentivirus vehicle for siRNA; FIG. 2
Procedure: (§1) Therefore, Experiment 2 was carried out with the following groups: lentivirus+gene silencer TNFRSF11B-siRNA, lentivirus+gene silencer NCF4-siRNA, full control (no vehicle and no drug), lentivirus+gene silencer SM22a-siRNA+glyceraldehyde 3-phosphate dehydrogenase (GAPDH) (vehicle control 1), lentivirus+gene silencer MYH11-siRNA+GAPDH (vehicle control 2), sirolimus (drug control 1), and paclitaxel (drug control 2).
(§2) TNFRSF11B-siRNA and NCF4-siRNA are gene silencers of the TNFRSF11B and NCF4 genes, respectively. The delivery system of gene silencers was developed by inserting the respective gene silencers in a plasmid which is carried by a lentivirus. Lentivirus particles are intracellular transduction-ready viruses containing plasmids with gene silencers. After transduction, cells express permanently gene silencers. The density of cell cultures 24 hours before transfection was 2×10^5 cells/10 cm2 in culture medium. […]
(§3) Two control groups containing a lentivirus and a gene silencer of smooth muscle protein 22α (SM22α) or smooth muscle myosin heavy chain (MYH11) were used to assess the vehicle. […] Thus, said two gene silencers, SM22α-siRNA and MYH11-siRNA, were marked with glyceraldehyde 3-phosphate dehydrogenase (GAPDH), called bioconjugates, to ensure by means of fluorescence microscopy that the gene silencers effectively entered VSMC and EC. […]

[2] = system: human EC; assay: EC proliferation in bottles containing human EC, vehicle nanoparticles (DSPE-PEG)
Procedure: (§4) Experiment 5 was carried out by using nanoparticles of 1, 2 distearoyl-sn-glycero-3-phosphoethanolamine-Nmethxy (polyethyleneglycol)-2000 (DSPE-PEG) as a drug and gene silencer carrying vehicle instead of lentiviruses and plasmids which were used in the previous experiments. That being so, 8 groups were included for both assessment of nanoparticles as a vehicle and final confirmation of the previous results: control (nanoparticles only), MYH11-siRNA in nanoparticles, CNN1-siRNA in nanoparticles, sirolimus in nanoparticles, paclitaxel in nanoparticles, TNFRSF11B-siRNA in nanoparticles, NCF4-siRNA in nanoparticles, and MYL9-siRNA+GAPDH in nanoparticles.
(§5) The groups of sirolimus in nanoparticles and paclitaxel in nanoparticles were included to compare the efficacy in inhibiting VSMC proliferation. The groups of NFRSF11B-siRNA in nanoparticles and NCF4-siRNA in nanoparticles were tested again with a different vehicle for final confirmation of the negative results. The group of MYL9-siRNA+GAPDH in nanoparticles was studied to evaluate the vehicle efficacy, that is, to ensure that gene silencers would enter VSMC and EC using nanoparticles as a vehicle. […] MYL9-siRNA gene silencer was marked with GAPDH for later verification of its transfection into the cells through fluorescence microscopy. Finally, pure nanoparticles were used as a vehicle control, that is, with neither drug nor gene silencer. […]

[3] = system: human VSMC; assay: VSMC proliferation in bottles containing human VSMC, vehicle nanoparticles (DSPE-PEG)
Source text: as §4, with “[…],” for “Experiment 5 was carried out by using nanoparticles of 1,”
as §5

[4] = system: human VSMC; assay: VSMC proliferation in bottles containing human VSMC, gene silencers vehicle lentivirus and plasmid; conditions: Experiment 2; lentivirus vehicle for siRNA; FIG. 1
Procedure: as §1, §2, §3

Compound: CO[C@H]1C[C@@H]2CC[C@@H](C)[C@@](O)(O2)C(=O)C(=O)N2CCCC[C@H]2C(=O)O[C@H]([C@H](C)C[C@@H]2CC[C@@H](O)[C@H](OC)C2)CC(=O)[C@H](C)/C=C(\C)[C@@H](O)[C@@H](OC)C(=O)[C@H](C)C[C@H](C)/C=C/C=C/C=C/1C [sirolimus]
- EC cell proliferation in relation to the full control group [1]: statistically significant inhibition
- EC proliferation compared to the control group ([2]; Experiment 5, in nanoparticles, control nanoparticles only, FIG. 7): statistically significant inhibition
- EC proliferation compared to the control group (nanoparticles only) ([2]; Experiment 7, in nanoparticles, FIG. 9): statistically significant inhibition
- human EC proliferation in comparison with the control ([2]; Experiment 8, 3 escalating doses, nanoparticles, FIG. 11): statistically significant difference in comparison with the control
- inhibition of VSMC proliferation in comparison with the control ([3]; Experiment 5, in nanoparticles, control nanoparticles only, FIG. 6): significant inhibition
- magnitude of human VSMC inhibition in comparison with the control group ([3]; Experiment 8, nanoparticles, compared with previous experiments): the same magnitude of human VSMC inhibition
- VSMC cell proliferation as compared to the full control group [4]: statistically significant inhibition
